According to patent US20260167728A1 (published 2026):
Results are given in words; binding and its absence hold for the method and conditions named. A result given as binding can be weak or reduced; the word gives no strength.

Key:
human CD3 (human) = assay: SPR Biacore 37 C
[1] = molecular target: cynomolgus monkey CD3 (cynomolgus monkey); assay: SPR Biacore 37 C

binding (human CD3 (human)) | binding [1] | Binder
binds | binds | AMX-525 (uTCE) (bispecific antibody, Fully unmasked metabolite; also called unmasked AMX-525; not shown: remnant of cleaved RSR-3213) GTSESATPESDIQMTQSPSSLSASVGDRVTITCQASQDISNYLNWYQQKPGKAPKLLIYDASNLETGVPSRFSGSGSGTDFTFTISSLQPEDIATYYCQHFDHLPLAFGQGTKVEIKSESATPESGPGTSPGATPESGPGTSESATPQVQLQESGPGLVKPSETLSLTCTVSGGSVSSGDYYWTWIRQPPGKGLEWIGHIYYSGNTNYNPSLKSRVTISVDTSKNQFSLKLSSVTAADTAVYYCARDRVTGAFDIWGQGTLVTVSSGGGGSELVVTQEPSLTVSPGGTVTLTCRSSNGAVTSSNYANWVQQKPGQAPRGLIGGTNKRAPGTPARFSGSLLEGKAALTLSGVQPEDEAVYYCALWYPNLWVFGGGTKLTVLSESATPESGPGTSPGATPESGPGTSESATPEVQLVESGGGIVQPGGSLRLSCAASGFTFSTYAMNWVRQAPGKGLEWVGRIRTKRNDYATYYADSVKGRFTISRDDSKNTLYLQMNSLKTEDTAVYYCVRHENFGNSYVSWFAHWGQGTLVTVSSGTATPESGPG
binds | binds | AMX-525 (bispecific antibody, Fully masked paTCE; also called AC4230; EGFR.37/CD3.318 paTCE) ASSATPESGPGTSTEPSEGSAPGTSESATPESGPGSGPGTSESATPGTSESATPESGPGSEPATSGSETPGTSESATPESGPGTSTEPSEGSAPGSPAGSPTSTEEGTSESATPESGPGSEPATSGSETPGTSESATPESGPGSPAGSPTSTEEGSPAGSPTSTEEGTSTEPSEGSAPGTSESATPESGPGTSESATPESGPGTSESATPESGPGSEPATSGSETPGSEPATSGSETPGSPAGSPTSTEEGTSTEPSEGSAPGTSTEPSEGSAPGSEPATSGSETPGTSESATPEAGRSASHTPAGLTGPGTSESATPESDIQMTQSPSSLSASVGDRVTITCQASQDISNYLNWYQQKPGKAPKLLIYDASNLETGVPSRFSGSGSGTDFTFTISSLQPEDIATYYCQHFDHLPLAFGQGTKVEIKSESATPESGPGTSPGATPESGPGTSESATPQVQLQESGPGLVKPSETLSLTCTVSGGSVSSGDYYWTWIRQPPGKGLEWIGHIYYSGNTNYNPSLKSRVTISVDTSKNQFSLKLSSVTAADTAVYYCARDRVTGAFDIWGQGTLVTVSSGGGGSELVVTQEPSLTVSPGGTVTLTCRSSNGAVTSSNYANWVQQKPGQAPRGLIGGTNKRAPGTPARFSGSLLEGKAALTLSGVQPEDEAVYYCALWYPNLWVFGGGTKLTVLSESATPESGPGTSPGATPESGPGTSESATPEVQLVESGGGIVQPGGSLRLSCAASGFTFSTYAMNWVRQAPGKGLEWVGRIRTKRNDYATYYADSVKGRFTISRDDSKNTLYLQMNSLKTEDTAVYYCVRHENFGNSYVSWFAHWGQGTLVTVSSGTATPESGPGEAGRSASHTPAGLTGPATPESGPGTSESATPESGPGSPAGSPTSTEEGTSESATPESGPGSEPATSGSETPGTSESATPESGPGTSTEPSEGSAPGTSTEPSEGSAPGTSTEPSEGSAPGTSTEPSEGSAPGTSTEPSEGSAPGTSTEPSEGSAPGSPAGSPTSTEEGTSTEPSEGSAPGTSESATPESGPGSEPATSGSETPGTSESATPESGPGSEPATSGSETPGTSESATPESGPGTSTEPSEGSAPGTSESATPESGPGSPAGSPTSTEEGSPAGSPTSTEEGSPAGSPTSTEEGTSESATPESGPGTSTEPSEGSAPGTSESATPESGPGSEPATSGSETPGTSESATPESGPGSEPATSGSETPGTSESATPESGPGTSTEPSEGSAPGSPAGSPTSTEEGTSESATPESGPGSEPATSGSETPGTSESATPESGPGSPAGSPTSTEEGSPAGSPTSTEEGTSTEPSEGSAPGTSESATPESGPGTSESATPESGPGTSPSATPESGPGSEPATSGSETPGSEPATSGSETPGSPAGSPTSTEEGTSTEPSEGSAPGTSTEPSEGSAPGSEPATSGSETPGTSESAGEPEA
